Test results: patent US4151283A, “6-Methyl-and 1,6-dimethyl-8β-carbobenzyloxy-aminomethyl-10α-ergoline as inhibitors of prolactin secretion” (Societa' Farmaceutici Italia S.p.A., priority 1977, dated 1979)
At least one compound was matched to its structure with a doubt left.

Legend:
5-hydroxytryptamine = settings: cited from earlier work; for anti-serotonin activity: already known, in words
prolactin secretion = experiment: Anti-prolactin activity in rats (nidation and lactation inhibition tests); assay type: in vivo, rat; settings: orally and parenterally (Table I and II), in words
prolactin (PRL) release = settings: normal subjects and acromegalic patients; provocative stimuli like Ro 4-4602 and TRH; cited from earlier work

## CN1C[C@H](CNC(=O)OCc2ccccc2)C[C@@H]2c3cccc4[nH]cc(c34)C[C@H]21 [1-Demethyl-metergoline, 6-Methyl-8β-carbobenzyloxy-aminomethyl-10α-ergoline]
5-hydroxytryptamine
  anti-serotonin activity: already known for their anti-serotonin activity
Prolactin secretion
  anti-prolactin activity: of the same order as a commonly accepted reference standard (III)

## CN1C[C@H](CNC(=O)OCc2ccccc2)C[C@@H]2c3cccc4c3c(cn4C)C[C@H]21 [Metergoline, 1,6-Dimethyl-8β-carbobenzyloxy-aminomethyl-10α-ergoline]
5-hydroxytryptamine
  anti-serotonin activity: already known for their anti-serotonin activity
5-hydroxytryptamine; literature (Beretta et al., Nature 207, 421, 1965)
  5-hydroxytryptamine antagonist activity: potent long-lasting 5-hydroxytryptamine antagonist
Prolactin secretion
  anti-prolactin activity: of the same order as a commonly accepted reference standard (III)
Prolactin (PRL) release
  effect on PRL levels and PRL response: lower basal PRL levels in normal subjects and in acromegalic patients as well as the PRL response to some provocative stimuli like Ro 4-4602 and TRH
